Measurements published in PubChem BioAssay AID504444 (National Center for Advancing Translational Sciences (NCATS), 2011).
Hit rate of the full screen: of about 360,000 compounds, about 7,500 (2.1%) were called active. The inconclusive results got no clear call from the source; some entries with a clear call stand among them for comparison. Calls come from the whole dose curve; as a rule, active = well fitted inhibition curve with a large enough effect; inconclusive = small, poorly fitted or top-dose-only effect, or effect the other way; inactive = flat fitted curve, though single readings scatter. A potency beside an inconclusive call is a rough fit, not a confirmed value.
% is set by controls: 0 for no effect and ±100 for the full control effect; potency is the fitted concentration of half-maximal effect.

Test: Nrf2 qHTS screen for inhibitors; note: nearly all actives have a fitted effect of over 60% in size
Settings: A549 ARE-Fluc reporter, luciferase luminescence, 18-24 h; activity change, negative = inhibition: at 46 µM (top of the series)
Procedure, shortened: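 A549 ARE_Fluc cells (5000/well, 5% FBS OPTI-MEM) pre-incubated 2 h, then treated with compounds 18-24 h at 37C/5% CO2 in concentration-response. CellTiter-Fluor viability read first; BugLite luciferase luminescence after 15 min at room temperature gives Nrf2 activity.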
For `O=C(Nc1cccc(Cl)c1)Nc1ccc(Cl)cn1`, the Potency was inconclusive: 1.16 µM [activator, full curve, poor fit]. For `Cc1cc(C=O)c(C)n1-c1ccc(N2CCCCC2)c([N+](=O)[O-])c1`, the Potency was inconclusive: 5.17 µM [falling, partial curve]. In the case of `CCOc1ccccc1/C=N/Nc1ccnc(=O)[nH]1`, the Potency is reported as inconclusive: 18.4 µM [activator, single point]. With `CN(C)c1nc(-c2ccccn2)nnc1-c1ccccc1` the Potency was inconclusive: 3.66 µM [falling, full curve]. In the case of `COc1cc2ccccc2cc1C(=O)Nc1ccccc1Cl`, the Potency is reported as inconclusive: 9.2 µM [activator, partial curve]. With `Cc1ccc(OCc2cc(C(=O)N(C)CCn3ccnc3C)no2)cc1C` the Potency was inconclusive: 11.6 µM [activator, partial curve, poor fit]. With `CCSc1nc(-c2cccnc2)ccc1C#N` the Potency was inconclusive: 32.6 µM [falling, single point]. In the case of `O=C(NCc1ccc2c(c1)OCO2)c1ccc(Br)o1`, the Potency is reported as inconclusive: 29.1 µM [falling, partial curve, poor fit]. In the case of `Cc1ccc(-c2nc3ccccc3nc2NN)cc1`, the Potency is reported as inconclusive: 16.4 µM [activator, partial curve]. For `CC1=CCC2C(=O)N(c3cccc(C(=O)Nc4ccc(Cl)cc4)c3)C(=O)C2C1` (configuration not stated), the Potency was inconclusive: 25.9 µM [falling, single point]. In the case of `COC(=O)c1ccccc1NC(=O)c1sc(=S)n(C)c1N`, the Potency is reported as inconclusive: 32.6 µM [activator, partial curve, poor fit]. For `COc1ccccc1C(=O)NC(=O)COC(=O)c1ccc(Cl)nc1`, the Potency was inconclusive: 13 µM [activator, partial curve, poor fit]. In the case of `C=CCNC(=O)CSc1ncc2c(n1)-c1c(csc1SC)CC2`, the “activity change, negative = inhibition” value is reported as inactive: -21.1%. With `CSc1nc2sc3c(c2c2nncn12)CCC3` the Potency was inconclusive: 25.9 µM [falling, partial curve, poor fit]. With `Cc1cc(=O)[nH]c(N=N/C(=N/Nc2ccccc2C)c2ccccc2)n1` the “activity change, negative = inhibition” value was inactive: -10.4%. With `Cc1c(C(=O)Nc2cccc(F)c2)cnn1-c1ccccc1` the Potency was inconclusive: 23.1 µM [activator, partial curve]. With `O=C(NC(=S)NCc1nc2ccccc2[nH]1)c1ccccc1F` the Potency was inconclusive: 6.51 µM [activator, partial curve]. For `O=C(Nc1c(C(=O)N2CCN(c3ccccc3F)CC2)oc2ccccc12)c1ccc(Br)o1`, the Potency was active: 23.1 µM. With `COc1ccc(CNC(=O)c2c(O)c3ccccc3n(C)c2=O)cc1OC` the Potency was inconclusive: 1.84 µM [falling, partial curve]. With `Oc1ccccc1-c1nc2ccc(Cl)cn2c1Nc1ccc2c(c1)OCCO2` the “activity change, negative = inhibition” value was inactive: 18.1%. For `CCOc1ccc(Nc2nc(N)nc(CN(C)C3CCCCC3)n2)cc1`, the Potency was inconclusive: 11.6 µM [activator, partial curve, poor fit]. In the case of `CCS(=O)(=O)N1CCc2cc(C(=O)Nc3cccc(NC(C)=O)c3)ccc21`, the Potency is reported as inconclusive: 20.6 µM [falling, single point]. In the case of `O=C(Cn1ncc2c1-c1ccccc1OC2)Nc1ccc(S(=O)(=O)N2CCCCC2)cc1`, the Potency is reported as inconclusive: 29.1 µM [falling, single point]. With `FC(F)Oc1ccc(-n2cc(-c3ccc(Cl)cc3)[n+]3c2CCCCC3)cc1` the “activity change, negative = inhibition” value was inactive: 5.85%. In the case of `Cc1nc(N2CCN(S(=O)(=O)c3ccccc3C#N)CC2)c2c(-c3ccccc3)csc2n1`, the Potency is reported as inconclusive: 20.6 µM [falling, single point]. In the case of `Cc1cccc(N2C(=O)CN(Cc3ccccc3)C2=S)c1`, the Potency is reported as inconclusive: 10.3 µM [falling, partial curve, poor fit]. In the case of `COc1ccc(-c2noc(CCC(=O)NCCc3cccc(C)c3)n2)cc1`, the Potency is reported as active: 23.1 µM. With `Cc1nc(C)c(C(=O)Nc2ncc([N+](=O)[O-])s2)o1` the Potency was inconclusive: 0.291 µM [activator, full curve]. With `O=C(CSc1ncccn1)N/N=C/c1ccc2c(c1)OCO2` the Potency was inconclusive: 18.4 µM [activator, single point]. In the case of `CCCC(CCC(=O)Nc1ccc(S(N)(=O)=O)cc1)C(=O)O` (configuration not stated), the Potency is reported as inconclusive: 4.11 µM [falling, single point]. For `O=C(CSc1ncnc2c1nnn2-c1ccc(F)cc1)NCc1ccco1`, the Potency was inconclusive: 11.6 µM [falling, single point]. In the case of `Cc1ccc2cc3cc(C(=O)NCCCN4CCc5ccccc5C4)oc3nc2c1`, the Potency is reported as inconclusive: 2.59 µM [activator, single point]. With `COc1ccc(S(=O)(=O)N2CCOCC2)cc1NC(=O)c1ccc(OCC(C)C)c(OC)c1` the Potency was inconclusive: 4.61 µM [falling, partial curve, poor fit]. In the case of `Cc1c(F)cccc1NS(=O)(=O)c1ccc2c(c1)c(=O)n(C)c(=O)n2C`, the Potency is reported as inconclusive: 18.4 µM [falling, single point]. In the case of `S=C(Nc1ccccn1)NC1CCCC1`, the “activity change, negative = inhibition” value is reported as inactive: -10.5%. With `CCS(=O)(=O)c1ncc(Cl)c(C(=O)Nc2ccccc2OC)n1` the Potency was inconclusive: 29.1 µM [activator, single point]. With `CCOc1ccc(OCC)c(NC(=O)C2CCCN2S(=O)(=O)c2cccc3cccnc23)c1` (configuration not stated) the Potency was inconclusive: 16.4 µM [falling, partial curve, poor fit]. For `Cn1c(=O)oc2cc(S(=O)(=O)N3CCCC(C(=O)N4CCN(c5ccc(F)cc5)CC4)C3)ccc21` (configuration not stated), the Potency was inconclusive: 29.1 µM [falling, single point]. In the case of `C=CCn1c(=O)/c(=C/c2ccc(O)cc2)s/c1=C(/C#N)c1nnc2n1CCCCC2`, the Potency is reported as inconclusive: 32.6 µM [falling, single point]. With `COc1ccc(OC(=O)c2cc3cc(Cl)ccc3oc2=O)cc1` the Potency was inconclusive: 0.92 µM [falling, full curve, poor fit]. With `Cc1ccc(C(=O)Cn2c(C(=O)/C=C/c3ccccc3)nc3ccccc32)cc1` the Potency was inconclusive: 23.1 µM [falling, single point]. With `COc1cc(CNC(=O)C2CC2)ccc1OCc1ccccc1` the Potency was inconclusive: 25.9 µM [activator, single point].
